Source: patent publication US5939601

Chains of the proteins cited; added tags and fusions are not shown. A line that says so, or that is headed by a name, gives the form on record, which may keep a tag or linker.
Myb1 (tobacco Myb homologue) (Nicotiana tabacum), one chain, as listed by the source: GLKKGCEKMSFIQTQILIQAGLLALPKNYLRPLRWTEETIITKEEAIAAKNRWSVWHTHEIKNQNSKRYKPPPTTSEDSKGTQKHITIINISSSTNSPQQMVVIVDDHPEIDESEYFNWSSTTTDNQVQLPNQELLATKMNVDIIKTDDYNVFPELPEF

Tested on: Myb1 (tobacco Myb homologue) (Nicotiana tabacum)
Experiment: EMSA
Conditions: purified recombinant protein, label: 32P

“CGGAATTCCCTAACTGACGCATCGATGGGA (double strand) [MBSI probe]”: binds more weakly (only very weakly bound, less effective competitor than MBSII).

“CGGAATTCCCTCCCTGACGCATCGATGGGA (double strand) [MBSIm probe]”: no binding (variant of MBSI probe).

“CGGAATTCTGTTGCCTATGCATCGATGGGA (double strand) [MBSIIm probe]”: no binding (variant of MBSII probe).

“CGGAATTCTGTTTGGTATGCATCGATGGGA (double strand) [MBSII probe]”: binds (preferential binding, effectively self-competed by unlabeled MBSII, 200 ng Myb1, 2 ug poly(dI-dC), 4 C, pH 8.0).

Construct, isoform or probe ends are uncertain for at least one entry. A negative result means that nothing was seen under these conditions. Weaker means in comparison with the reference protein, sequence or condition of that experiment.
